This passage reports binding results from PMC4427203.

By UniProt entry, the sequences of proteins in these tests, tags left out. Where a name states a change or a piece, a line headed by the entry shows the natural chain unless it says otherwise.
UniProt P25638: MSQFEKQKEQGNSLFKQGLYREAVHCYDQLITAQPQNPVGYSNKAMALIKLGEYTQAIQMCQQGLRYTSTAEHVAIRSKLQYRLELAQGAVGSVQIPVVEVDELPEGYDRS

Results are given in words; binding and its absence hold for the method and conditions named. Some results given as binding are weak or reduced against the parent protein; the word gives no strength.

In assay [1] the target is Flag-Tah1–cHsp90 complex (S. cerevisiae | not stated) (UniProt P25638+P02829). The assay is described as follows: condition: fivefold to tenfold excess over 70 µM Flag-Tah1 and Hsp90 600-709; pull-down; 70 µM Flag-Tah1 and Hsp90 600-709 with increasing AIP 172-315 or full-length AIP (5-10 molar excess); 20 mM HEPES pH 7.5, 150 mM NaCl, 10% glycerol, 0.5% IGEPAL, 2 mM EDTA; captured on anti-Flag M2 magnetic beads; eluate on SDS-PAGE; both purified.

The next assay addresses Hsp90 600-709 (UniProt P02829). The assay is described as follows: pull-down; 70 µM Flag-Tah1 and Hsp90 600-709 with increasing AIP 172-315 or full-length AIP (5-10 molar excess); 20 mM HEPES pH 7.5, 150 mM NaCl, 10% glycerol, 0.5% IGEPAL, 2 mM EDTA; captured on anti-Flag M2 magnetic beads; eluate on SDS-PAGE; both purified.

B1: full-length AIP (protein, UniProt O00170 1-330)
chain: MADIIARLREDGIQKRVIQEGRGELPDFQDGTKATFHYRTLHSDDEGTVLDDSRARGKPMELIIGKKFKLPVWETIVCTMREGEIAQFLCDIKHVVLYPLVAKSLRNIAVGKDPLEGQRHCCGVAQMREHSSLGHADLDALQQNPQPLIFHMEMLKVESPGTYQQDPWAMTDEEKAKAVPLIHQEGNRLYREGHVKEAAAKYYDAIACLKNLQMKEQPGSPEWIQLDQQITPLLLNYCQCKLVVEEYYEVLDHCSSILNKYDDNVKAYFKRGKAHAAVWNAQEAQADFAKVLELDPALAPVVSRELRALEARIRQKDEEDKARFRGIFSH
For B1, the binding result in assay [1] is on record as “no binding”; in the assay with Hsp90 600-709 it was “binds”.

B2: AIP 172-315 (domain or fragment, UniProt O00170 172-315)
chain: DEEKAKAVPLIHQEGNRLYREGHVKEAAAKYYDAIACLKNLQMKEQPGSPEWIQLDQQITPLLLNYCQCKLVVEEYYEVLDHCSSILNKYDDNVKAYFKRGKAHAAVWNAQEAQADFAKVLELDPALAPVVSRELRALEARIRQ
In the case of B2, the binding result in assay [1] is reported as “no binding”; in the assay with Hsp90 600-709 it was “binds”.
